Source: patent US20160289298A1
Results are given in words; binding and its absence hold for the method and conditions named. Some results given as binding are weak or reduced against the parent protein; the word gives no strength.

Chains of the proteins cited; added tags and fusions are not shown. Residues count along the entry.
UniProt P36894, residues 24-152: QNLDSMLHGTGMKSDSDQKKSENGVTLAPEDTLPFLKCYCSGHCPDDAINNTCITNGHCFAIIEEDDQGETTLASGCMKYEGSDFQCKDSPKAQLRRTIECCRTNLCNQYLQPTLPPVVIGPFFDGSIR

Key:
GDF6 [1] = target: T1, GDF6 (UniProt Q6KF10); assay: SPR (Biacore), receptor-Fc captured by anti-Fc antibody, ligand injected
T1 sequence (looked up): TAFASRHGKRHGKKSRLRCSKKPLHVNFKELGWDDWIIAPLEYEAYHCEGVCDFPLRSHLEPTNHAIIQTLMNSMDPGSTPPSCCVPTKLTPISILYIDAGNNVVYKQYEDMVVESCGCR

GDF7 [2] = target: T2, GDF7 (UniProt Q7Z4P5); assay: as above
T2 sequence (looked up): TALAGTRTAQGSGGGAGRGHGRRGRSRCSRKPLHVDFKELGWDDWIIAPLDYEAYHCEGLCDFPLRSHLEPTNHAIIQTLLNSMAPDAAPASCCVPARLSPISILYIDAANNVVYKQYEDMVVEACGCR

GDF6 [3] = target: T1, GDF6; assay: SPR (Biacore), legend of FIG. 7
GDF7 [4] = target: T2, GDF7; assay: SPR (Biacore), legend of FIG. 7

binding (GDF6 [1]): binds | binding (GDF7 [2]): binds | binding (GDF6 [3]): binds | binding (GDF7 [4]): binds
Substance: ALK3-Fc homodimeric complex (from UniProt P36894 24-152) (Fc fusion)
